This is one part of the list. Shown are side measurements of this screen, not its main read-out; they come without a call. Most of these compounds were active or inconclusive in the main read-out, so they are no random draw. The note in brackets gives the kind of curve behind each potency; many fits are weak.
Assay: qHTS Assay for Lipid Storage Modulators in Drosophila S3 Cells;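 as to cell number change: cells counted by Cell Tracker Red CMTPX staining in the red channel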
Settings: BODIPY lipid droplet fluorescence, 18-24 h; for cell number change: measured here: cell count max response, cells fed with added oleic acid
How it was run: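 Drosophila S3 cells loaded with oleic acid (400 uM, as added) and compounds at several concentrations; lipid droplets imaged by 488-nm laser-scanning cytometry, 500–530 nm intensity and object ratio to cell channel. Percent activity normalized to 20 uM Triacsin C.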

[1] = measured here: lipid fluorescence (Fed channel) AC50, cells fed with added oleic acid
[2] = measured here: cell number channel AC50, cells fed with added oleic acid

Structure (SMILES) | cell number change | AC50 [1] | AC50 [2]
O=S(=O)(c1cccc(-c2cn3cccnc3n2)c1)N1CCOCC1 | -1.74% | 2.59 µM [rising, single point] | –
CC(=O)C1(C)N(O)C(C)(C)C(c2cccs2)=[N+]1[O-] (stereo unspecified) | -36.1% | 20.6 µM [falling, partial curve, poor fit] | 16.4 µM [falling, partial curve]
CS(=O)(=O)N1CCN(C(=O)c2cc3ccccc3oc2=O)CC1 | -8.44% | 7.31 µM [falling, partial curve] | –
O=C(N/N=C/C=C/c1ccccc1[N+](=O)[O-])c1cc(-c2cccnc2)nc2ccccc12 | 10.1% | 0.58 µM [rising, full curve] | –
COCCCNC(=O)/C(C#N)=C/c1c(N2CCN(c3cccc(Cl)c3)CC2)nc2c(C)cccn2c1=O | -42.2% | 0.58 µM [falling, full curve, poor fit] | 25.9 µM [falling, single point]
COc1ccccc1OCCOc1ccc(/C=N/n2cnnc2)cc1 | 5.17% | – | –
COc1ccc(-n2nc3cc(C)c(NC(=O)CC(C)C)cc3n2)cc1 | -21.2% | 0.00411 µM [rising, full curve, poor fit] | –
COC(=O)C1C(=O)C2=C(CC1C)NC(=O)CC2c1ccc(F)cc1 (stereo unspecified) | -11.9% | – | 0.731 µM [falling, single point]
O=C(CSc1nc2sc3c(c2c(=O)[nH]1)CCCC3)NCCO | 9.85% | – | 0.146 µM [rising, full curve, poor fit]
CC(=O)Cc1nsc(NC(=O)c2ccccc2Cl)n1 | -24.7% | – | 3.26 µM [falling, single point]
O=C(NCCCN1CCCC1=O)c1cccc(S(=O)(=O)Nc2ccc(F)cc2)c1 | -20.5% | 5.17 µM [falling, full curve, poor fit] | –
COc1c(C)cc(C(=O)C2CCCN(C(=O)c3cc(C)n(C)n3)C2)cc1C (stereo unspecified) | – | 5.17 µM [rising, single point] | 4.11 µM [rising, partial curve, poor fit]
COc1ccc(C)cc1S(=O)(=O)N1CCN(C(=O)c2ncoc2-c2cccc(C)c2)CC1 | – | 0.231 µM [rising, full curve] | –
CCOC(=O)c1ccccc1NC(=O)c1cc(S(=O)(=O)N2CCOCC2)ccc1F | 167% | 3.66 µM [rising, partial curve] | 5.8 µM [rising, partial curve]
CCOC(=O)C1=C(CN2CCN(C(=O)OCC)CC2)NC(=O)NC1c1ccc2c(c1)OCO2 (stereo unspecified) | 19.7% | 6.51 µM [rising, single point] | –

Full records, looked up by structure.
`CCOC(=O)C1=C(CN2CCN(C(=O)OCC)CC2)NC(=O)NC1c1ccc2c(c1)OCO2` (stereo unspecified) is listed with cell number change: 19.7%; AC50 [1]: 6.51 µM [rising, single point]
`COCCCNC(=O)/C(C#N)=C/c1c(N2CCN(c3cccc(Cl)c3)CC2)nc2c(C)cccn2c1=O` is listed with cell number change: -42.2%; AC50 [1]: 0.58 µM [falling, full curve, poor fit]; AC50 [2]: 25.9 µM [falling, single point]

Reference: PubChem BioAssay AID2685 (National Center for Advancing Translational Sciences (NCATS), 2010)
